Data from the ROBIN nucleic acid binder screens, doi:10.1002/anie.202211358.

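Each compound is printed as two spots on a slide made to bind it covalently, so it has no test concentration; the read-out is fluorescence of the bound, labelled oligonucleotide. For the PreQ1, TPP and SAM-II riboswitches the laboratory earlier reported (doi:10.1038/s41467-019-09493-3) 1 µM RNA, 2 h, and a rule that included a mean Z-score above 3 (spot signal-to-noise against the whole library), a score well above that on a control array, and duplicate spots agreeing (coefficient of variation under 100). The data file gives only the calls; its cut-offs may differ, and compounds hitting several targets are kept. The calls come from the array alone, and fixing a compound to the slide can hide its binding.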
Key: hit = hit, no hit = tested without a hit.
Compounds were drawn at random from those tested, without regard to their results.

Oligonucleotides screened, 5′ to 3′:
T1: PreQ1 riboswitch RNA pseudoknot, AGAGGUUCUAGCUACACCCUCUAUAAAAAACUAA. From B. subtilis. About 170 hits among about 24,000 compounds.
T2: TPP riboswitch RNA three-way junction, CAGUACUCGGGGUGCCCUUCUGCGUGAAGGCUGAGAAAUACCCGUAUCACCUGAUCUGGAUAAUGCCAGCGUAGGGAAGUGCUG. About 160 hits among about 24,000 compounds.

With CCSc1nnc2c(n1)OC(C=Cc1ccc([N+](=O)[O-])o1)Nc1ccccc1-2 (centres undefined) the screen gave T1: no hit; T2: no hit. With CCN1c2ccccc2C2=C(C(c3ccc(F)cc3)C(C#N)=C(N)O2)S1(=O)=O (centres undefined) the screen gave T1: no hit; T2: no hit. NCCO[C@H]1C[C@@H](O)C12CCN(C(=O)COc1ccc3c(c1)OCO3)CC2 was scored T1: no hit; T2: no hit. For CCCCn1c(CCCO)nc2ccccc21 the calls were T1: no hit; T2: no hit. For CCOC(=O)c1sc2nc(Cc3ccccc3)nc(NCC3CCCO3)c2c1C (centres undefined) the calls were T1: no hit; T2: no hit. For C=CCn1c(N)cc(=O)nc1SCC(=O)Nc1cc(C)ccn1 the calls were T1: no hit; T2: no hit.

For Cc1cc(O)c2cc(C(=O)c3ccccc3)ccc2n1 the calls were T1: no hit; T2: no hit. Calls for N#CC1=C(N)Oc2[nH]nc(-c3ccccn3)c2C1c1cccnc1 (centres undefined) are T1: no hit; T2: no hit. CC1=CC(C)C2(CO)COC(c3cccnc3)C1C2C (centres undefined) was scored T1: no hit; T2: no hit. CCCCn1cnc2cc(NCc3ccc(Br)cc3)ccc21 was scored T1: no hit; T2: no hit. Calls for Cc1ccc(C(C)C)c(OCC(O)CN2CCN(c3ccccc3F)CC2)c1.Cl.Cl (centres undefined) are T1: no hit; T2: no hit. c1cncc(OCCCNC2CCOC3(CCOCC3)C2)c1 (centres undefined) was scored T1: no hit; T2: no hit.

With Cc1[nH]nc2c1C(c1cccc(Cl)c1Cl)C(C#N)=C(N)O2 (centres undefined) the screen gave T1: no hit; T2: no hit. Cc1ccc(C)c(NCc2c[nH]c3ccccc23)c1 was scored T1: no hit; T2: no hit. Calls for Nc1ccc2c(c1Cl)C(=O)c1ccc(N)c(Cl)c1C2=O are T1: no hit; T2: no hit. For Cc1cc(NCCN(C)C)n2nc(-c3ccc(Cl)cc3)c(C)c2n1 the calls were T1: no hit; T2: no hit. For COC(=O)c1ccc(Nc2nc(C)nc3c2CCC3)cc1 the calls were T1: no hit; T2: no hit. With NCCCC(N)CC(=O)NCC1NC(=O)C(CO)NC(=O)C(N)CNC(=O)C(C2CCN=C(N)N2)NC(=O)C(=CNC(N)=O)NC1=O (centres undefined) the screen gave T1: no hit; T2: no hit.

With CCN(CC)C(=O)[C@@H]1C[C@@H](N)CN1C(=O)c1cc(C)nn1CC the screen gave T1: no hit; T2: no hit. Nc1cccc(Cl)c1N1CCOCC1 was scored T1: no hit; T2: no hit. Cc1cccc(NC(=O)c2c(N)sc(-c3ccccc3)c2C)c1 was scored T1: no hit; T2: no hit. Calls for CNNCc1ccc(C(=O)NC(C)C)cc1 are T1: no hit; T2: no hit. For CC1CCC(Nc2c(-c3ccc(Cl)cc3)[nH]c3c(C#N)cnn23)CC1 (centres undefined) the calls were T1: no hit; T2: no hit. Calls for CC(C)C[C@@H](CO)NC(=O)CSCc1ccccc1Cl are T1: no hit; T2: no hit.

Calls for C[C@]12CC[C@@H]3c4ccc(O)cc4C[C@@H](CCCCCCCCCS(=O)CCCC(F)(F)C(F)(F)F)[C@H]3[C@H]1CC[C@H]2O (some centres undefined) are T1: no hit; T2: no hit. With N#Cc1sc2nc(-c3ccccc3)c3c(c2c1N)CCCC3 the screen gave T1: no hit; T2: no hit. Calls for Cc1ccc(-c2nc3cc(F)ccc3cc2CN2CCN(CCO)CC2)cc1 are T1: no hit; T2: no hit. With COc1ccccc1-n1cc(C(=O)N2C[C@H](c3ccc(C)o3)[C@@H](N)C2)cn1 the screen gave T1: no hit; T2: no hit. With Cc1nc(N)nc(C)c1CC(=O)N1CCC2(CCC(=O)N(C)CC2)CC1 the screen gave T1: no hit; T2: no hit. For COc1ccc(-c2csc(C3=C(N)N(c4ccccc4Cl)CC3=O)n2)cc1 the calls were T1: no hit; T2: no hit.

Nc1nonc1OCc1ccc2c(c1)OCO2 was scored T1: no hit; T2: no hit. With CNC(=O)c1ccc(CN2CCN(c3cc(O)ncn3)CC(O)C2)o1 (centres undefined) the screen gave T1: no hit; T2: no hit. For CCCc1nc(C(=O)N2CCNCC2C(=O)N2CCN(C)CC2)cs1 (centres undefined) the calls were T1: no hit; T2: no hit. CCCc1nc2ccccc2n1CC(O)COc1ccccc1C(C)=O (centres undefined) was scored T1: no hit; T2: no hit. For Oc1ccc(/N=N/c2nccs2)c(O)c1 the calls were T1: no hit; T2: no hit. For Nc1cc(C(=O)N2CCC(c3nccn3Cc3ccncc3)CC2)ccn1 the calls were T1: no hit; T2: no hit.

With CC(C)c1ocnc1C(=O)NCC1CNCCO1 (centres undefined) the screen gave T1: no hit; T2: no hit. With O=C(O)C(c1ccc(-c2ccccc2)cc1)N1CCN(CCCCO)CC1 (centres undefined) the screen gave T1: no hit; T2: no hit. C=CCNc1ccccc1C(=O)NCCNC(=O)c1ccncc1 was scored T1: no hit; T2: no hit. With Cc1nnc2c(Nc3ccc(Br)cc3F)nc3ccccc3n12 the screen gave T1: no hit; T2: no hit. With CCOC(=O)c1c(N)sc(C(=O)N2CCCCC2)c1C the screen gave T1: no hit; T2: no hit. For CC(=O)C1=C(O)C(=O)N(CC(C)O)C1c1cccnc1 (centres undefined) the calls were T1: no hit; T2: no hit.

For C=CCSCC(=O)N1CC[C@H]2CC[C@@H](C1)N2 the calls were T1: no hit; T2: no hit. With Cc1ccccc1NCc1nc2ccccc2n1C the screen gave T1: no hit; T2: no hit.

The last 3 entries again:

| structure | T1 | T2 |
|---|---|---|
| `CC(=O)C1=C(O)C(=O)N(CC(C)O)C1c1cccnc1` (centres undefined) | no hit | no hit |
| `C=CCSCC(=O)N1CC[C@H]2CC[C@@H](C1)N2` | no hit | no hit |
| `Cc1ccccc1NCc1nc2ccccc2n1C` | no hit | no hit |